Reference: patent US20210115000A1, “NILE RED DERIVATIVES FOR IMPROVED RATIOMETRIC IMAGING FOR NERVE SPECIFIC CONTRAST” (Oregon Health & Sciences University, priority 2018, published 2021)
Some entries share one result that the patent states for a list of compounds. At least one structure is not confirmed: it was looked up by name or label, or the drawing left a doubt.

Assay: Spectroscopic analysis: absorbance, emission and quantum yield of Nile Red derivatives
Type: physicochemical
Settings: in DMSO; standard Rhodamine B
Description: Tandem liquid chromatography mass spectroscopy (LCMS) analysis (Agilent 1260 LC system with a 6224 time of flight (TOF) MS, Agilent, Santa Clara, Calif.) was performed using a 2.7 micron C18 column (4.6×50 mm, Agilent). High performance liquid chromatography (HPLC) purification (Agilent 1260 system with a preparative pump) was performed using a 5 micron C18 column (21.2×150 mm, Agilent). For both HPLC and LCMS, the mobile phase consisted of HPLC grade acetonitrile and water, treated with 0.1% formic acid. Spectroscopic analysis was performed on a Spectramax M5 spectrometer (Molecular Devices, Sunnyvale, Calif.) using a quartz cuvette with a 1 cm pathlength. Quantum yield was calculated according to equation (1).
Where Ø is the quantum yield, F is the integrated fluorescence intensity, f is the absorbance at the excitation wavelength and n is the refractive index of the solvent. S refers to the quantum yield standard (Rhodamine B)^25 and X refers to the unknown sample.

Compound: CCN(CC)c1ccc2nc3c4ccc(-c5ccc(C#N)cc5)cc4c(=O)cc-3oc2c1 [NR5, 4-(9-(diethylamino)-5-oxo-5H-benzo[a]phenoxazin-3-yl)benzonitrile]
- QY (quantum yield): > 0.45
